The target in assay [1] is Fom-2 decoy (bait) protein (melon (Cucumis melo L.)) (UniProt Q6E436). Description: two-hybrid; Matchmaker Gold system; Y2HGold (pGBKT7-Fom-2) mated with the Y187 melon-F. oxysporum cDNA library, blue colonies on DDO/X/A then QDO/X/A; positive library plasmids retested by co-transformation with the bait or with empty pGBKT7 into Y2HGold on DDO/X and QDO/X/A.
The target is the same in assay [2]. Description: two-hybrid; reverse hybridization: one-to-one mating of Y187 carrying the AD plasmid with Y2HGold carrying the BD decoy plasmid; QDO/X.

No constants are given. Whether binding was seen depends on the method and setting. A result given as binding can be weak or reduced; the word gives no strength.

For the substance “BZIP transcription factor MELO3C011839 (from UniProt A0A1S3BEV4)”, the binding entry in assay [1] and in assay [2] was “binds” throughout.
Regarding “BZIP transcription factor MELO3C019349 (from UniProt A0A1S3C234)”, the binding result in assay [1] and in assay [2] was “binds” throughout.
